No constants are given. Whether binding was seen depends on the method and setting. Binding calls can cover weak binding; strength is not graded here.
Target: GST-Tax (human T cell leukemia virus type 1 (HTLV-1)) (UniProt P03409)
Test: pull-down; GST-Tax bound to glutathione-sepharose beads 1 hr at 4°C in TEE buffer (50 mM Tris-HCl pH 7.9, 1 mM EDTA, 1 mM EGTA); His-WIP1 added, 2 hours at 4°C; washed 4 times in TEN100 (20 mM Tris-HCl pH 7.4, 0.1 mM EDTA, 100 mM NaCl); western blot with anti-His and anti-Tax; both purified

Substance: Recombinant His-tagged WIP1ΔEx6 (from UniProt O15297) (enzyme)
- binding: binds

Reference: paper PMC3566092
